This is one part of the list.

For this test, the target named is T1, OsSMF1 (Oryza sativa, UniProt Q6ZLB0 1-436).
T1 sequence: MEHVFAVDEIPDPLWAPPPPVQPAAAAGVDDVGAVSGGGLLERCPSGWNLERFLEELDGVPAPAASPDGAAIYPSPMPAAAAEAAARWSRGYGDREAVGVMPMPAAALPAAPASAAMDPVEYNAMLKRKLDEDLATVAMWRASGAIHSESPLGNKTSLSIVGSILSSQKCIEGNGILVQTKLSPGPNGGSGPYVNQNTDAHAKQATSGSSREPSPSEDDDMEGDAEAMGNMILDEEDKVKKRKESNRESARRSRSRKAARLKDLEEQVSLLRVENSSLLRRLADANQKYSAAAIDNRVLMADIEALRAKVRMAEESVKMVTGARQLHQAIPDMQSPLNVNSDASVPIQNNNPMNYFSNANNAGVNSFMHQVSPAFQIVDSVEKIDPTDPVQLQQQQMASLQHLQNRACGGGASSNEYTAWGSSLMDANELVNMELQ
Put plainly: protein-binding microarray (RPBM); PBS, 2% BSA, 51.3 ng/ul salmon testes DNA, 50 uM zinc acetate, 200 nM TF, 25 C, 1 h; high values mean tight binding. Conditions: protein: recombinant; tags: N-terminal polyhistidine and DsRed monomer fusion (pET32a); chain copies: 2; label: CyDye5-dUTP incorporated in the synthesized complementary strand; 3' TTTTT single-stranded linker to array surface; dsDNA, one strand shown. The essentials:
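Per-feature fluorescence intensity (arbitrary units), read on an Axon 4000B scanner, is the binding signal. Transcription factors carrying an N-terminal polyhistidine tag and DsRed fusion were expressed in E. coli BL21-CodonPlus and purified on Ni–NTA. A custom Agilent array, made double-stranded by primer extension with Cy5-dUTP and blocked with 2% BSA, was incubated with 200 nM protein in PBS, 2% BSA, salmon testes DNA and 50 µM zinc acetate at 25 °C for 1 h and then washed.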
For “ACAGGCTATTCTGCACTGAACAAGCTTCTTGGGCGGGAAGCGGAGTCACCTAGTGCAG”, the binding signal is 3230 fluorescence intensity (a.u.).
With “GACTTTCTCAAACACAGTCATGAACTCATGATACATGTCCCGGAGTCACCTAGTGCAG”, the binding signal was 4840 fluorescence intensity (a.u.).
The value for “ATCATTCATGCGCGTCTGGCTGCCCACTCCGCATATTCTGCGGAGTCACCTAGTGCAG” was 3540 fluorescence intensity (a.u.).
The value for “GTTTAGAATAGTTCCCGCAATGGCAAATGTCATTGTTTGTCGGAGTCACCTAGTGCAG” was 5020 fluorescence intensity (a.u.); that for “CAGATGCTCCGTCATCACCTAGTCATCACAAGCATTCTTTCGGAGTCACCTAGTGCAG” was 15300 fluorescence intensity (a.u.); that for “AAACAATTAATTCGGCAGAGAACATACTGAGTCATTTTGGCGGAGTCACCTAGTGCAG” was 3900 fluorescence intensity (a.u.).
The value for “TCATCTTCCTTAACAACTGCAGCATCACGTCATCGTCATCCGGAGTCACCTAGTGCAG” was 5410 fluorescence intensity (a.u.); that for “TATTGGTTTGTATCACGTCGTCATCAACACGATGAAGCTGCGGAGTCACCTAGTGCAG” was 4850 fluorescence intensity (a.u.).
With “AAATCATGACGTAATTAGGCTCAAAGGATTTGTCTCACAACGGAGTCACCTAGTGCAG”, the binding signal is 4650 fluorescence intensity (a.u.).
The value for “AAACCAATGGGGCAAGAAGTAGCGTCAATGCGTGATACAGCGGAGTCACCTAGTGCAG” was 3230 fluorescence intensity (a.u.); that for “ACACGGATATCCACGGCTGCACTGAGGTAGTACTAGATTTCGGAGTCACCTAGTGCAG” was 3340 fluorescence intensity (a.u.); that for “ATGAGGAGGAGAGAGAATGACATGCGGGTCTCATTAACTCCGGAGTCACCTAGTGCAG” was 3280 fluorescence intensity (a.u.).
Turning to “CTGGTAACCACGCACAGTAAAAGCTTCATTTTGACTCAGACGGAGTCACCTAGTGCAG”, the binding signal was 3620 fluorescence intensity (a.u.).
On to “GGAGGCAATCACACGACGTGTCTAGGAGTAGTATATTCCTCGGAGTCACCTAGTGCAG”, for which the binding signal was 4110 fluorescence intensity (a.u.).
Next, “TTCCTTTGCCTCGTCATCAAACCGCGCGCGCTCCTCAACTCGGAGTCACCTAGTGCAG”: 12900 fluorescence intensity (a.u.); “CAAATACGATACGTATATTGGGTAGCGGCCAAAGCGCTAGCGGAGTCACCTAGTGCAG”: 25200 fluorescence intensity (a.u.); “TTGACATATGAGCCATAGTAAAATAGGTCCACATGTCAGTCGGAGTCACCTAGTGCAG”: 3610 fluorescence intensity (a.u.).
Next, “GAGACTGACGTGTGGGTCCCACGAAGTTAATTATTCTTCCCGGAGTCACCTAGTGCAG”: 5980 fluorescence intensity (a.u.).
In the case of “CCGCCCGGATCTACCTCGGCGCCGCGTCGGCGGGCGGAACCGGAGTCACCTAGTGCAG”, the binding signal is 3710 fluorescence intensity (a.u.).
The value for “TAATCCATTCCTAATAAGAATCGAATAAAGAGATAGAGTTCGGAGTCACCTAGTGCAG” was 28800 fluorescence intensity (a.u.); that for “TCGAGGAAATTACCATATCGCCCACCACCCCGGGCCACGTCGGAGTCACCTAGTGCAG” was 5830 fluorescence intensity (a.u.); that for “GATCGATAATCTACGATGAGTAATCGATGTGGTGGACTTGCGGAGTCACCTAGTGCAG” was 20000 fluorescence intensity (a.u.).
The value for “AAACGAGCACATGAGCACATGTACACCCTATTCTAAGAGCCGGAGTCACCTAGTGCAG” was 29700 fluorescence intensity (a.u.); that for “TTACTATATTTGTCTATAAACTTAGTCAAACTTGAAGTCACGGAGTCACCTAGTGCAG” was 24300 fluorescence intensity (a.u.); that for “TCTGTAGTGTTGGCGTGTTGCCACTATCTTGCATTTACAGCGGAGTCACCTAGTGCAG” was 4070 fluorescence intensity (a.u.).
With “GAGGTGGGGTGGCTTAGTGACCTCGTGTCGTAGATTGGATCGGAGTCACCTAGTGCAG”, the binding signal was 4900 fluorescence intensity (a.u.).
Regarding “GAGGAGTGGAAGGGTCTGCAACGGGACGGATGATGGGGTTCGGAGTCACCTAGTGCAG”, the binding signal was 5060 fluorescence intensity (a.u.).
For “AGGATCTGTGTCTGACTGTGTTTACAAGTGGATTGGATAACGGAGTCACCTAGTGCAG”, the binding signal is 6350 fluorescence intensity (a.u.).
The value for “CCTACAGTCAAGCCCATTCTGTTTTACCGATTGCAATGCTCGGAGTCACCTAGTGCAG” was 26200 fluorescence intensity (a.u.); that for “GCATCACTGACACGCGGGCCCTGCCCACGTGGTCGGTAGCCGGAGTCACCTAGTGCAG” was 6540 fluorescence intensity (a.u.); that for “AATTGGTTGAGAGGAGGATGTACATGGAGAAAATAGCTTTCGGAGTCACCTAGTGCAG” was 3490 fluorescence intensity (a.u.).
With “GACCACACTAACTCTGTCACCGTGTCTGTTCCATGATCGGCGGAGTCACCTAGTGCAG”, the binding signal is 3440 fluorescence intensity (a.u.).
The value for “ATCAAGGAGATCTTCTTCTTCCGCTCGTAATGCTGGATGGCGGAGTCACCTAGTGCAG” was 24800 fluorescence intensity (a.u.).
In the case of “AATCTATATGTTATCGTCCTCCTCTTGCGTGTGGCTAGTTCGGAGTCACCTAGTGCAG”, the binding signal was 3750 fluorescence intensity (a.u.).
The value for “GGACGTTCGAGATTCGTCCACGTCATCATGAGTTAAAATTCGGAGTCACCTAGTGCAG” was 11700 fluorescence intensity (a.u.); that for “ATTTCACAGTGTTTATCTAGGTGTATTATTCCACACGTGTCGGAGTCACCTAGTGCAG” was 6120 fluorescence intensity (a.u.); that for “CACCCCGCGCGCTCCCGGTTCCCACCTCCCCTAACTAACTCGGAGTCACCTAGTGCAG” was 4040 fluorescence intensity (a.u.).
As to “TCACGAACGCACGATGCAAAGACAAAGTTGTCACGTCAATCGGAGTCACCTAGTGCAG”, the binding signal was 26100 fluorescence intensity (a.u.).
With “AGGGATGCAAGAAGAAGAAGCACCTGATTCAACGCTTGCCCGGAGTCACCTAGTGCAG”, the binding signal is 24600 fluorescence intensity (a.u.).
Regarding “CTCACTCGCTTGCGCTTCACCTCGCGGCATCGACTTCCTACGGAGTCACCTAGTGCAG”, the binding signal is 3630 fluorescence intensity (a.u.).
“AGAAAATGAGTTGGAGTCATTATTTTGTGTGTATACCCGACGGAGTCACCTAGTGCAG”: the binding signal is 5560 fluorescence intensity (a.u.).
Next, “ACCTGCACAAGTGTGAAGTCGAGGGTGACTCAGCTCAACTCGGAGTCACCTAGTGCAG”: 10100 fluorescence intensity (a.u.).

For the origin of these results see publication PMC7819943, “Rice protein-binding microarrays: a tool to detect cis-acting elements near promoter regions in rice”.
